This note sets out measurements from doi:10.1101/2022.01.14.476433.

By UniProt entry, the sequences of proteins in these tests, tags left out. Where a name states a change or a piece, a line headed by the entry shows the natural chain unless it says otherwise. Residues count along the entry.
UniProt P37173: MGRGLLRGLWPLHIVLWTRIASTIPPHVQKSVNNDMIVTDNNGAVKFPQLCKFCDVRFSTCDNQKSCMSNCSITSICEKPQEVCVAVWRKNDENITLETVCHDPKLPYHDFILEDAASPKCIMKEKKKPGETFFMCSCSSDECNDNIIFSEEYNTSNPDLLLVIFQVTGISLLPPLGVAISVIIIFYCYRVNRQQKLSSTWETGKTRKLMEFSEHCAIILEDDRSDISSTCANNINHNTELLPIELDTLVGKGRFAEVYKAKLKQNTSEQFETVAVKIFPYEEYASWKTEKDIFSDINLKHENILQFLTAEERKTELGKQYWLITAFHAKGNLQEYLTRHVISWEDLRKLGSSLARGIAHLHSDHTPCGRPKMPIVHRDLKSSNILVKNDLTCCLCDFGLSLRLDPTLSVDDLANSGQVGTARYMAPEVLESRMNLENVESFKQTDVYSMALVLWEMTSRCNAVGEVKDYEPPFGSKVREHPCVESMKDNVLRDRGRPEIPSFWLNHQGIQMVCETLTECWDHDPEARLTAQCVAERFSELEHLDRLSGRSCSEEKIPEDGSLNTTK
Transforming growth factor-β receptor type 2 (TGF-β-R2), endogenous (human (endogenous in HUVECs)): residues 23-567 of P37173
GST-TGF-β-R2 (23–166 amino acids): residues 23-166 of P37173

Results are given in words; binding and its absence hold for the method and conditions named. For some assays here: Binding seen in cells or lysates may run through a third protein. Some binding calls cover weakened binding; strength is not graded here. For some assays here: Where a sequence is shown, tags or fusion partners need not be part of it.

In assay [1] the target is Transforming growth factor-β receptor type 2 (TGF-β-R2), endogenous (human (endogenous in HUVECs)) (UniProt P37173). Description: co-IP.
Assay [2] deals with GST-TGF-β-R2 (23–166 amino acids) (UniProt P37173). As to the kind of experiment: pull-down.

B1: Heparin-binding protein (HBP) in cell lysate (protein, UniProt P20160 27-251)
chain: IVGGRKARPRQFPFLASIQNQGRHFCGGALIHARFVMTAASCFQSQNPGVSTVVLGAYDLRRRERQSRQTFSISSMSENGYDPQQNLNDLMLLQLDREANLTSSVTILPLPLQNATVEAGTRCQVAGWGSQRSGGRLSRFPRFVNVTVTPEDQCRPNNVCTGVLTRRGGICNGDGGTPLVCEGLAHGVASFSLGPCGRGPDFFTRVALFRDWIDGVLNNPGPGPA
On to B1, for which, in assay [1], the binding result is recorded as “binds”.

B2: Recombinant human heparin-binding protein (His-HBP) (protein, UniProt P20160 27-251)
chain: B1 chain
B2: in assay [2], the binding entry was “binds”.
